Source: PMC11199634
No constants are given. Whether binding was seen depends on the method and setting. In cells and extracts the contact can be indirect. Some entries that bind do so weakly or less than the wild type. Sequences can lack the tags named with a protein.

By UniProt entry, the sequences of proteins in these tests, tags left out.
UniProt O60927: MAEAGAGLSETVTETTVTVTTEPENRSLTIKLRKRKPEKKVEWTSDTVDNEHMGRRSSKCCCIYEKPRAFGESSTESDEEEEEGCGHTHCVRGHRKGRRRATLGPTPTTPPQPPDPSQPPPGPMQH
UniProt Q9NYF8: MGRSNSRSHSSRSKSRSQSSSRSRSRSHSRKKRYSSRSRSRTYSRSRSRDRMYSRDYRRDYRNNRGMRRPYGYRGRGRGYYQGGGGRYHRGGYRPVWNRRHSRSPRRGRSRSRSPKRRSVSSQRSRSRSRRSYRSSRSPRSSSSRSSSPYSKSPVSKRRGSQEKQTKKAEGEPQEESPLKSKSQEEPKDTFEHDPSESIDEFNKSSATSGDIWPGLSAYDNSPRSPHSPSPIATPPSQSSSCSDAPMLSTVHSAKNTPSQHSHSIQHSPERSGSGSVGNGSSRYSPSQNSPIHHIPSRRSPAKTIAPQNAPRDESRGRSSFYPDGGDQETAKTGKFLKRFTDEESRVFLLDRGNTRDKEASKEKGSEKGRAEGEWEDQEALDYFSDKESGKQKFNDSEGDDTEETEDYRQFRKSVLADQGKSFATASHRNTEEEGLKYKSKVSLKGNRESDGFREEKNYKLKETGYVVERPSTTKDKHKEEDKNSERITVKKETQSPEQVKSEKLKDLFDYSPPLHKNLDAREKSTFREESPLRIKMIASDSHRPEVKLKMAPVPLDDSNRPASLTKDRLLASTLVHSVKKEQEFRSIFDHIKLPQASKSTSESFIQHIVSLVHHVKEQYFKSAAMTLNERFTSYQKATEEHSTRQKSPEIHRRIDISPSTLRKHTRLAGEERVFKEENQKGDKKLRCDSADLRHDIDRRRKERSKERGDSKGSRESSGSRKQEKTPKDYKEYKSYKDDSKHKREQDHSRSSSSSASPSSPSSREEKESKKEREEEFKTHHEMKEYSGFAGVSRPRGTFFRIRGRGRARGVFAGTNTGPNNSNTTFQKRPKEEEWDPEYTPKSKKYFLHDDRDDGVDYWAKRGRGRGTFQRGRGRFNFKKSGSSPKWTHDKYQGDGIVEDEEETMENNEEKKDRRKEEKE

Assays:
[1] = target: T1, EGFP-SDS22-WT (human) (UniProt Q15435); experiment: co-IP; ectopically expressed SDS22-WT, SDS22-KR7A or a PP1–SDS22 fusion, pulldown (Supplementary Fig. 4h); tag and cells not given
T1 sequence: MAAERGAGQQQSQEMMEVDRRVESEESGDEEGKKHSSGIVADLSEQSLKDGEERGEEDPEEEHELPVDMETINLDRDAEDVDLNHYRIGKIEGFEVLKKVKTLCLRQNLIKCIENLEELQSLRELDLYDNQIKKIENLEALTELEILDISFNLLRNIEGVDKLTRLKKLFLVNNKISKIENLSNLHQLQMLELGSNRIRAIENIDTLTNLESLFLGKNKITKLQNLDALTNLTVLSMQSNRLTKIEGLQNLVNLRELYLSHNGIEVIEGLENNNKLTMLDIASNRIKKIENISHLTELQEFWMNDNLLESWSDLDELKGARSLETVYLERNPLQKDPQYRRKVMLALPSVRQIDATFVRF

[2] = target: T2, EGFP-SDS22-W302* (human) (UniProt Q15435); experiment: co-IP; EGFP-trap (anti-EGFP nanobodies on agarose, 2 h, 4 °C) of transiently expressed EGFP fusions from HEK293T lysates (20 mM Tris pH 7.9, 0.3 M NaCl, 0.5% Triton X-100); endogenous partners by immunoblot
T2 sequence: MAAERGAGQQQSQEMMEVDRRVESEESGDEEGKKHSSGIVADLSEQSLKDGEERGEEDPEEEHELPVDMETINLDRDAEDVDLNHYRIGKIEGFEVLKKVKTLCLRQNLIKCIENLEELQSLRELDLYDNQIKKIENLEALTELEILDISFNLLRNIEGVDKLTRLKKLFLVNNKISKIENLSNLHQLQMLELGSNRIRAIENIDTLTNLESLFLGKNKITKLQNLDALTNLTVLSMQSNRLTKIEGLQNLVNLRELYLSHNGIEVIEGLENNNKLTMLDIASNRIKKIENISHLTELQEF

[3] = target: T1, EGFP-SDS22-WT (human); experiment: as above

binding [1] | binding [2] | binding [3] | Substance
binds | no binding | binds | Inhibitor-3 (endogenous, HEK293T) (from UniProt O60927 1-126)
binds | no binding | binds | BCLAF1 (endogenous, HEK293T) (from UniProt Q9NYF8 1-920)
